US20140308259A1 (University of Pennsylvania, published 2014)
Results are given in words; binding and its absence hold for the method and conditions named. Some binding calls cover weakened binding; strength is not graded here.

Amino acid sequences for entries named in this document (tags omitted). A change or cut given only in a name is not applied to a line headed by its entry.
UniProt P01732: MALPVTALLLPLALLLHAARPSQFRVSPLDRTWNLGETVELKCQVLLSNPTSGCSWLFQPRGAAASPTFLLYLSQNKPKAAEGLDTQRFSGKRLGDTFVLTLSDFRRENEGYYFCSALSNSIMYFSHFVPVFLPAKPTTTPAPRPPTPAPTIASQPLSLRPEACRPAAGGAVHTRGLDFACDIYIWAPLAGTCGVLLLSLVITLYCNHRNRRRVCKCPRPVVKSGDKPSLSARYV

What was measured:
[1] = biological target: T1, human B7-H4 protein (as used with the CAR T cells of Example 3) (human) (UniProt Q7Z7D3); test: binding of B7-H4 protein to CAR T cells (FIG. 13 legend)
T1 sequence (looked up): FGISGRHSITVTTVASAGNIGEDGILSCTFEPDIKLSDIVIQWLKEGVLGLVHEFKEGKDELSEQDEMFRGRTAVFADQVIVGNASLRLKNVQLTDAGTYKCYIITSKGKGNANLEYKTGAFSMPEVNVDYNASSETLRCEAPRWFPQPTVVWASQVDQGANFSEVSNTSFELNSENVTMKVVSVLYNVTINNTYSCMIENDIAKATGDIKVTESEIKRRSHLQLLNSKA

[2] = biological target: T1, human B7-H4 protein (as used with the CAR T cells of Example 3) (human); test: binding of B7-H4 protein to CAR T cells (FIG. 13)
[3] = biological target: T1, human B7-H4 protein (as used with the CAR T cells of Example 3) (human); test: binding of B7-H4 protein to CAR T cells (FIG. 14)
[4] = biological target: T2, mouse B7-H4 protein (mouse) (UniProt Q7TSP5); test: binding of B7-H4 protein to CAR T cells (FIG. 14)
T2 sequence (looked up): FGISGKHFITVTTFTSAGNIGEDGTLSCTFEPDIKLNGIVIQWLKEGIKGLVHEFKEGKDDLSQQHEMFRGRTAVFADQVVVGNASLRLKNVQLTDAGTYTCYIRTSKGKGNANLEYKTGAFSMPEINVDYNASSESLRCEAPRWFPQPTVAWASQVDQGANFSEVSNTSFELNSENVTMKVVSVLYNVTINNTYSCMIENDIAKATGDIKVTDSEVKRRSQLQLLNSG

[5] = biological target: T1, human B7-H4 protein (as used with the CAR T cells of Example 3) (human); test: binding of B7-H4 protein to CAR T cells (FIG. 14 legend)
[6] = biological target: T2, mouse B7-H4 protein (mouse); test: as above

binding [1]	binding [2]	binding [3]	binding [4]	binding [5]	binding [6]	Substance
binds	binds	binds	binds	binds	binds	B7-H4 CAR with anti-B7H4 scFv clone 3#54 (from UniProt P01732 138-206; P10747 180-220; P20963 52-163)
binds	binds	binds	binds	binds	binds	B7-H4 CAR with anti-B7H4 scFv clone 3#68 (from UniProt P01732 138-206; P10747 180-220; P20963 52-163)
binds	binds	binds	binds	binds	binds	B7-H4 CAR with anti-B7H4 scFv clone 26 (from UniProt P01732 138-206; P10747 180-220; P20963 52-163)
binds	binds	binds	binds	binds	binds	B7-H4 CAR with anti-B7H4 scFv clone 56 (from UniProt P01732 138-206; P10747 180-220; P20963 52-163)
